Experimental findings from the supplement of paper PMC10849652 are described below.

Chains of the proteins cited; added tags and fusions are not shown. Lines headed by an entry give the natural chain unless they say otherwise; changes in a name come on top.
UniProt P00966: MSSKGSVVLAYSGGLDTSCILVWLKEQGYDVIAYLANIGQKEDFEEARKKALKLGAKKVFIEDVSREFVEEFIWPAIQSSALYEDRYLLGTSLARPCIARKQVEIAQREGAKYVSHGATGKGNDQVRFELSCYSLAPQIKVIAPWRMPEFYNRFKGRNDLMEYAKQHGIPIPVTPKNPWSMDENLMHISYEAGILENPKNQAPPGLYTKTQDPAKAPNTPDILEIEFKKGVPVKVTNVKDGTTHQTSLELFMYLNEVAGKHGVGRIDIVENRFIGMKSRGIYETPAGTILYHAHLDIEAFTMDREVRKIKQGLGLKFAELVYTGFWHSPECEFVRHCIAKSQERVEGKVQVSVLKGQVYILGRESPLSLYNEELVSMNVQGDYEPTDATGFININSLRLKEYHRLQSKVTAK
UniProt O95260: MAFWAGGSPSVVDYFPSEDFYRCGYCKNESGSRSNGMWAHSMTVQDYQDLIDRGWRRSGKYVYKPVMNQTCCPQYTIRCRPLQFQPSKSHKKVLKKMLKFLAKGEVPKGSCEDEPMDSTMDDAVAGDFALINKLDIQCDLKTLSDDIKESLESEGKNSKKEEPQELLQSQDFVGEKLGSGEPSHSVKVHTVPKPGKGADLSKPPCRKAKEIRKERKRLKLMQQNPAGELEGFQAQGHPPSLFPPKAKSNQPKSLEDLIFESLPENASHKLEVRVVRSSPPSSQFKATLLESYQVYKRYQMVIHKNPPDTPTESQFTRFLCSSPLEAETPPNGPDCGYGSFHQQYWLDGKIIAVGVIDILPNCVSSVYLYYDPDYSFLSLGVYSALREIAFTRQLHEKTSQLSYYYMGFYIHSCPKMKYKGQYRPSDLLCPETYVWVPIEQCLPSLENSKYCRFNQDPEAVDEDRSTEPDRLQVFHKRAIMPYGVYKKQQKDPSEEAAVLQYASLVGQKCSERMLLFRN
UniProt P18846: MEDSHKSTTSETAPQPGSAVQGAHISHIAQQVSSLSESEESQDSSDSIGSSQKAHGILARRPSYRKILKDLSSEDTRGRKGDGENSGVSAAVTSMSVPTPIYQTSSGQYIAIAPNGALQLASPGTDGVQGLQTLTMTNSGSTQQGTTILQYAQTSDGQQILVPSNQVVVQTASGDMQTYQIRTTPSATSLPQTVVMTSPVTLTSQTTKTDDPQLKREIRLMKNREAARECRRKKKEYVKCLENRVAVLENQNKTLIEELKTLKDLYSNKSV
UniProt Q93050, whole entry, looked up: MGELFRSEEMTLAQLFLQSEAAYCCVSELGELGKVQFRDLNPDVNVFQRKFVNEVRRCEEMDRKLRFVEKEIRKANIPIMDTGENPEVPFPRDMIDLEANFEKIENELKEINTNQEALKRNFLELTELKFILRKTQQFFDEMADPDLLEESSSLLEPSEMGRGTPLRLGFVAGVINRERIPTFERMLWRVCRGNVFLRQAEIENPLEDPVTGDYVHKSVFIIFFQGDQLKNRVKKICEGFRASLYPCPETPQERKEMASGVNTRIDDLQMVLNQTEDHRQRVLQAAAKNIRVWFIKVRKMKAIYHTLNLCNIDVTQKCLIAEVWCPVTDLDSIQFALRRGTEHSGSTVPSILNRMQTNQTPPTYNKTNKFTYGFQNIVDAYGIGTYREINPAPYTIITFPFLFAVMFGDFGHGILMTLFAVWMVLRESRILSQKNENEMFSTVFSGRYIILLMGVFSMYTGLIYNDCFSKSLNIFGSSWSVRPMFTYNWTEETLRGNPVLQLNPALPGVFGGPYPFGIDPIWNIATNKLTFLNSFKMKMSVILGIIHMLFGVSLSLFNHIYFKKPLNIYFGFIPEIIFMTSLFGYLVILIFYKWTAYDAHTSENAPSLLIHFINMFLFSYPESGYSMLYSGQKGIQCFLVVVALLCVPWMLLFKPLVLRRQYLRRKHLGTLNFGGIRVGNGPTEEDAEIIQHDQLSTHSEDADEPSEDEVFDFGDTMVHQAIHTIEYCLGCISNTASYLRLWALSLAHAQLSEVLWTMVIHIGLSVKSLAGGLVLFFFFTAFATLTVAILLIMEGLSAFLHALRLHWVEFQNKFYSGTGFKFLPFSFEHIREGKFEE
UniProt Q14CW9: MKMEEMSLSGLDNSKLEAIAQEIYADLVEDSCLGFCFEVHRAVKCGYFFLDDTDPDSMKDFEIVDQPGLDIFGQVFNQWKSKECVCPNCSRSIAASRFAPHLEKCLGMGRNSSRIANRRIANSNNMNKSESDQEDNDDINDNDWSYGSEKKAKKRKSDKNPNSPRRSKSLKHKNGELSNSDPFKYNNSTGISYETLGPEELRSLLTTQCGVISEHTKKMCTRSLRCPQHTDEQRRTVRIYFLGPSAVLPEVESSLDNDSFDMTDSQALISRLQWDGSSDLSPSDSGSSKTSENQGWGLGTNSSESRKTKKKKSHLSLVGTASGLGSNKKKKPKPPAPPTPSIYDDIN
UniProt P98194: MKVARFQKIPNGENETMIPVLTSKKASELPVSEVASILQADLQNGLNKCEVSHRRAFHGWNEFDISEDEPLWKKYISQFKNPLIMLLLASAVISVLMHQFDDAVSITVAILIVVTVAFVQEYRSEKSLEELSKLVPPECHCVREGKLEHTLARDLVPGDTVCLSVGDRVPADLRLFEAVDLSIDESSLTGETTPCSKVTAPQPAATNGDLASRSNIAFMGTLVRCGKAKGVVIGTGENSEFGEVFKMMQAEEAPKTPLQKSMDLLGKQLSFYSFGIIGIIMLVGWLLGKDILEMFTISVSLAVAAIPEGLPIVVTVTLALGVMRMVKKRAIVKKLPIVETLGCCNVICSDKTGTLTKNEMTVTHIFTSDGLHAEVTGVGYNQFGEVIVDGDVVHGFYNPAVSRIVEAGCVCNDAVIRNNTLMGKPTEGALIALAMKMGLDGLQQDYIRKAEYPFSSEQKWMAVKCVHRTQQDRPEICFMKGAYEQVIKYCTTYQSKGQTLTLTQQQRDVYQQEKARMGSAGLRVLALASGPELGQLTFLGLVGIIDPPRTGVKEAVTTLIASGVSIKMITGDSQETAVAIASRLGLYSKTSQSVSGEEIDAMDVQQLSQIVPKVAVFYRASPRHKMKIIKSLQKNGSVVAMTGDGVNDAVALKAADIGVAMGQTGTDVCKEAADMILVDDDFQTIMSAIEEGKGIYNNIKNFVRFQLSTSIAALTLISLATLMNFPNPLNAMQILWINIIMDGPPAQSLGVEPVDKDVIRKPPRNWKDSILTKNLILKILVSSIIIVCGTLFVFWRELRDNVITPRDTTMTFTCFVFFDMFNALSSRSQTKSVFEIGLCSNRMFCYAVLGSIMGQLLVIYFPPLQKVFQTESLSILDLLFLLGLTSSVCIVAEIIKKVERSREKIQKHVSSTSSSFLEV
UniProt Q67FW5: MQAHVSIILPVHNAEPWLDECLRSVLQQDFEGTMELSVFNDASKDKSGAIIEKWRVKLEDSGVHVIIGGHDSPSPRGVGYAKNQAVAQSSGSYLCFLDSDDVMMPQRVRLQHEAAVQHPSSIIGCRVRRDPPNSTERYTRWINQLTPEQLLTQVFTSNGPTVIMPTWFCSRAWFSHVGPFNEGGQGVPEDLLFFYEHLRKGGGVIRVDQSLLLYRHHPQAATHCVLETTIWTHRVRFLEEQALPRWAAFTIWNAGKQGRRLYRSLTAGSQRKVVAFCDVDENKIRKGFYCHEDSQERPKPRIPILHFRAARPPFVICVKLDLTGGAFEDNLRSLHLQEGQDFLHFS
UniProt Q76L83: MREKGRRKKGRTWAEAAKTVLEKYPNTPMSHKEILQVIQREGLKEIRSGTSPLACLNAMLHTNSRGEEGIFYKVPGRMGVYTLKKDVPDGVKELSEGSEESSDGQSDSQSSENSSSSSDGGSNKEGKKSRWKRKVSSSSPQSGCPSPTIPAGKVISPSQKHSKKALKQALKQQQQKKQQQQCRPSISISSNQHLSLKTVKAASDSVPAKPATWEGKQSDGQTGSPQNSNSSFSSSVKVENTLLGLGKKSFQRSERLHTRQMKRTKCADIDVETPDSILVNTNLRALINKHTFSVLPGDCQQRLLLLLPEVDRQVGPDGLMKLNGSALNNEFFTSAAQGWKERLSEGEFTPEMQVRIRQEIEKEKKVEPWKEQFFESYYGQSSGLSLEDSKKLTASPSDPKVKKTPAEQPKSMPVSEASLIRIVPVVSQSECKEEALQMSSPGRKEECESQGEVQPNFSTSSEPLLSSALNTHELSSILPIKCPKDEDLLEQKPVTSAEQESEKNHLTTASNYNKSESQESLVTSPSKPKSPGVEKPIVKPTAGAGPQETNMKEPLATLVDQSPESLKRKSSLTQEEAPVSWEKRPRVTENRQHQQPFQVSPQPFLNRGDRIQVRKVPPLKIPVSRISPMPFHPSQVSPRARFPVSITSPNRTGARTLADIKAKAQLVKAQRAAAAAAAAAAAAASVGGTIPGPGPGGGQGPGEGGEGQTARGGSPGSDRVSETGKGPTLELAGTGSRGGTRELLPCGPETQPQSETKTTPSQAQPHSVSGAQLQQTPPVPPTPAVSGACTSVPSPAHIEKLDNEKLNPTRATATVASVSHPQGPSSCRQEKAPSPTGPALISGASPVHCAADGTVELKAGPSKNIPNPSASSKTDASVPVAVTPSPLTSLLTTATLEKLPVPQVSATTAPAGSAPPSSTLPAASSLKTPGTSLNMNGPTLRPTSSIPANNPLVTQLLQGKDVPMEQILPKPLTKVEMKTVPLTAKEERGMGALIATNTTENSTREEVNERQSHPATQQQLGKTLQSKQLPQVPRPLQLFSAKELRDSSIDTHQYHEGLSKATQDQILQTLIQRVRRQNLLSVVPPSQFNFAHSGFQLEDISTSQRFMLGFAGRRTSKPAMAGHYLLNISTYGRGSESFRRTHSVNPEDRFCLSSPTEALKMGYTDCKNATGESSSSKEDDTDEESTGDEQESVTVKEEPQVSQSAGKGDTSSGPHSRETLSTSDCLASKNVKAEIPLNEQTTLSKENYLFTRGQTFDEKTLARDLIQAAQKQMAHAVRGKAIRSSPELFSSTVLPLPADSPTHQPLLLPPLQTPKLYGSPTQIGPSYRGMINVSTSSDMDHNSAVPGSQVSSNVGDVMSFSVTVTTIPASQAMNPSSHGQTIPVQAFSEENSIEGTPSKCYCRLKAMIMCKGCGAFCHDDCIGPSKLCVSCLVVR
UniProt Q96L58: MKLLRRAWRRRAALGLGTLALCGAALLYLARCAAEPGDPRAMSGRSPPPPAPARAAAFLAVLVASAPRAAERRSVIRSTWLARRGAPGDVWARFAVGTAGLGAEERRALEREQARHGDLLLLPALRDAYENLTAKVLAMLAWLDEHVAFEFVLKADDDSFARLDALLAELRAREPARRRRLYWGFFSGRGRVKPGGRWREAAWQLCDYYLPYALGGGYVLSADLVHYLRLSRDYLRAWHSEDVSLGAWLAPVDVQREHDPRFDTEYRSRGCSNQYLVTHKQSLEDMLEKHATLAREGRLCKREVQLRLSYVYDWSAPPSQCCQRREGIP
UniProt Q8NCR0: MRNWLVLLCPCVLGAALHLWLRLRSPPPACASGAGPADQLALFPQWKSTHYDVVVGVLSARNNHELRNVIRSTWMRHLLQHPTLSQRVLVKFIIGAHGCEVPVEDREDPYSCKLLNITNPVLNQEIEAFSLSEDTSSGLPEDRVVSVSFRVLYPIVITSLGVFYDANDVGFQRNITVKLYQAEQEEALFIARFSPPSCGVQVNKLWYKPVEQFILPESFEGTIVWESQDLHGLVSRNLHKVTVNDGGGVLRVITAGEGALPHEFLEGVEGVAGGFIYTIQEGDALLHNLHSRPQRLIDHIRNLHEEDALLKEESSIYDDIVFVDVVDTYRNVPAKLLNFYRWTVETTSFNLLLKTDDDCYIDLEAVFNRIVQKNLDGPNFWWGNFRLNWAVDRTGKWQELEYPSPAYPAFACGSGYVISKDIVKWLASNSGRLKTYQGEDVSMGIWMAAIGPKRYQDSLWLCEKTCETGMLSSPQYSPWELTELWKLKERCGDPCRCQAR
UniProt Q6P4H8: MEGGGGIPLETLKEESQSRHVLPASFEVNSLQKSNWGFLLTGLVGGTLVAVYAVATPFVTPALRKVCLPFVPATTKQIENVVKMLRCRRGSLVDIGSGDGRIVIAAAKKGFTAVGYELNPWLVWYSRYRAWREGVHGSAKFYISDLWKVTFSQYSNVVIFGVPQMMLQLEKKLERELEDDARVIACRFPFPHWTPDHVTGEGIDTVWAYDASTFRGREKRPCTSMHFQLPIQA
UniProt Q9UN42: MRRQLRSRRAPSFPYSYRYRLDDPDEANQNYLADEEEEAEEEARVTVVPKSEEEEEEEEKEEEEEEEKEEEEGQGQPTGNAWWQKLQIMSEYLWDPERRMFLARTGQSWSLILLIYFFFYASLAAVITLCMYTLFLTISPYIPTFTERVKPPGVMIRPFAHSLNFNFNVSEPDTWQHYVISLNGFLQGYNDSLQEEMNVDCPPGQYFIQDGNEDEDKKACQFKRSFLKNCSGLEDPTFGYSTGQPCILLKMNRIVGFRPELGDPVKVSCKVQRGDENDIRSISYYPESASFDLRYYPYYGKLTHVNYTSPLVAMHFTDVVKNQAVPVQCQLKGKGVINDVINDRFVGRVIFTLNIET

The list shows a part of the results.

Compound in one test: CN1CCC(CNc2ccc3ncc(-c4cccc(OC(F)(F)F)c4)n3n2)CC1
Briefly: log2 fold change, soluble protein after heating vs DMSO (PISA); higher = thermal stabilisation; K562 lysate, 10 uM; active = over 0.2 and 3.5 SD of the protein, either way, in both replicates (recomputed). In a few lines: (§1)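 Soluble protein was defined as the supernatant remaining after 21,000xg for 90 min, following pooling of heated aliquots and adjustment to 0.5% NP-40 at 4°C. Before that, crude K562 extract at 1 mg/mL protein in PBS pH 7.4 with 1 mM MgCl2 was treated with 10 μM compound for 30 min and heated for 3 min across 48°C-58°C. Quantification used TMTpro 16plex LC-MS/MS with channel sums equalised, and values are log-two fold changes in thermal stability relative to solvent controls from duplicates.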
For the target ASS1 (UniProt P00966), the log2 fold change was inactive: -0.025.

With ATE1 (UniProt O95260), the log2 fold change was inactive: 0.003.

Take ASNSD1 (UniProt Q9NWL6): the log2 fold change was inactive: 0.126.

Turning to ATF1 (UniProt P18846), the log2 fold change was inactive: -0.006.

Regarding ASXL1 (UniProt Q8IXJ9), the log2 fold change was inactive: -0.138.

Turning to ATP6V0A1 (UniProt Q93050), the log2 fold change was inactive: 0.149.

With ATP1B1 (UniProt P05026), the log2 fold change is inactive: -0.021.

ATXN7L3 isoform 2 (UniProt Q14CW9): the log2 fold change was inactive: 0.164.

For ATP2C1 isoform 3 (UniProt P98194), the log2 fold change is inactive: 0.035.

In the case of B3GNTL1 (UniProt Q67FW5), the log2 fold change was inactive: -0.033.

In the case of ASXL2 (UniProt Q76L83), the log2 fold change is inactive: -0.084.

For ATP5F1A (UniProt K7ENJ4), the log2 fold change was inactive: 0.117.

Consider ATP11C, A0A067XG54, for which the log2 fold change was inactive: 0.103.

Compound in a further test: CN1CCN(CCOc2cc(OC3CCOCC3)c3c(Nc4c(Cl)ccc5c4OCO5)ncnc3c2)CC1 [saracatinib]
Described as above. In a few lines: as §1
In the case of ASS1 (UniProt P00966), the log2 fold change was inactive: -0.028.

Take ASB16 (UniProt Q96NS5): the log2 fold change was inactive: 0.139.

Regarding B3GALT6 (UniProt Q96L58), the log2 fold change was inactive: -0.172.

For the target ATF1 (UniProt P18846), the log2 fold change was inactive: -0.075.

On to ATG4D (UniProt Q86TL0), for which the log2 fold change is inactive: -0.188.

With ATXN2 (UniProt F8WB06), the log2 fold change is inactive: -0.088.

As for B3GALNT2 (UniProt Q8NCR0), the log2 fold change was inactive: -0.076.

Take ASXL1 (UniProt Q8IXJ9): the log2 fold change was inactive: 0.

Regarding ATP6V0A1 (UniProt Q93050), the log2 fold change is inactive: 0.076.

Consider ATPSCKMT (UniProt Q6P4H8), for which the log2 fold change was inactive: 0.053.

As to ATP1B4 (UniProt Q9UN42), the log2 fold change is inactive: 0.102.

On to ATP1B1 (UniProt P05026), for which the log2 fold change is inactive: -0.008.

Take ATXN7L3 isoform 2 (UniProt Q14CW9): the log2 fold change was inactive: 0.001.

In the case of ASXL2 (UniProt Q76L83), the log2 fold change was inactive: 0.031.

ATP5F1B (UniProt H0YI37): the log2 fold change was inactive: 0.138.

For the target ATP11C, A0A067XG54, the log2 fold change is inactive: 0.147.

Compound in the next test: CN1CCN(c2nc(C3=C(c4c[nH]c5ccccc45)C(=O)NC3=O)c3ccccc3n2)CC1 [sotrastaurin]
The description is as above. In a few lines:
as §1
Consider ASTE1 (UniProt Q2TB18), for which the log2 fold change is inactive: 0.191.

In the case of ASS1 (UniProt P00966), the log2 fold change was inactive: 0.033.

In the case of ASB16 (UniProt Q96NS5), the log2 fold change is inactive: 0.009.

For the target ATE1 (UniProt O95260), the log2 fold change was inactive: 0.021.

Take B3GALT6 (UniProt Q96L58): the log2 fold change is inactive: 0.067.

Regarding NA (UniProt B2RBV5), the log2 fold change was inactive: 0.281.

Turning to ATF1 (UniProt P18846), the log2 fold change was inactive: -0.002.

On to ATF6B (UniProt Q99941), for which the log2 fold change was inactive: 0.004.

With ATG4D (UniProt Q86TL0), the log2 fold change was inactive: 0.058.

Turning to ASXL3 (UniProt Q9C0F0), the log2 fold change was inactive: -0.011.

For the target B3GALNT2 (UniProt Q8NCR0), the log2 fold change is inactive: 0.073.

On to ASXL1 (UniProt Q8IXJ9), for which the log2 fold change was inactive: 0.031.

Regarding ATP6V0A1 (UniProt Q93050), the log2 fold change is inactive: -0.109.

With ATPSCKMT (UniProt Q6P4H8), the log2 fold change is inactive: -0.007.

In the case of ATP1B4 (UniProt Q9UN42), the log2 fold change is inactive: 0.002.

In the case of ATP1B1 (UniProt P05026), the log2 fold change was inactive: 0.005.

Consider ATXN7L3 isoform 2 (UniProt Q14CW9), for which the log2 fold change is inactive: -0.031.

Consider B3GNTL1 (UniProt Q67FW5), for which the log2 fold change is inactive: 0.043.

Regarding ASXL2 (UniProt Q76L83), the log2 fold change is inactive: -0.256.

As for ATP5F1B (UniProt H0YI37), the log2 fold change was inactive: -0.13.

Regarding ATP5F1C isoform 2 (UniProt P36542), the log2 fold change is inactive: -0.325.

In the case of ATP11C, A0A067XG54, the log2 fold change was inactive: 0.039.

Compound in another test: CN1CC[C@H](c2c(O)cc(O)c3c(=O)cc(-c4ccccc4Cl)oc23)[C@H](O)C1 [alvocidib]
The test is described as above. In a few lines: as §1
Turning to ASS1 (UniProt P00966), the log2 fold change was inactive: 0.031.

In the case of ATE1 (UniProt O95260), the log2 fold change is inactive: -0.024.

On to ASNSD1 (UniProt Q9NWL6), for which the log2 fold change was inactive: 0.

Consider ATF1 (UniProt P18846), for which the log2 fold change was inactive: -0.063.

In the case of ASXL1 (UniProt Q8IXJ9), the log2 fold change is inactive: 0.044.

Take ATP6V0A1 (UniProt Q93050): the log2 fold change was inactive: -0.023.

Turning to ATP1B1 (UniProt P05026), the log2 fold change is inactive: 0.03.

Take ATXN7L3 isoform 2 (UniProt Q14CW9): the log2 fold change was inactive: 0.049.

Consider ATP2C1 isoform 3 (UniProt P98194), for which the log2 fold change is inactive: -0.06.

For the target B3GNTL1 (UniProt Q67FW5), the log2 fold change is inactive: -0.23.

For ASXL2 (UniProt Q76L83), the log2 fold change was inactive: 0.1.

Consider ATP5F1A (UniProt K7ENJ4), for which the log2 fold change was inactive: 0.067.

Turning to ATP11C, A0A067XG54, the log2 fold change was inactive: -0.058.

Compound in the next test: CN1CCc2c(c3ccccc3n2Cc2ccc(C(=O)NO)cc2)C1 [Tubastatin A]
The test is described as above. In a few lines:
as §1
For the target ASS1 (UniProt P00966), the log2 fold change is inactive: -0.14.

With ATAD2B (UniProt Q9ULI0), the log2 fold change was inactive: -0.126.

For the target B3GALT6 (UniProt Q96L58), the log2 fold change is inactive: 0.051.

As to ATF1 (UniProt P18846), the log2 fold change was inactive: 0.035.

As to ATG4D (UniProt Q86TL0), the log2 fold change was inactive: -0.09.

For the target ASXL3 (UniProt Q9C0F0), the log2 fold change was inactive: -0.151.

For the target B3GALNT2 (UniProt Q8NCR0), the log2 fold change is inactive: 0.052.

ASXL1 (UniProt Q8IXJ9): the log2 fold change was inactive: -0.043.

For ATP6V0A1 (UniProt Q93050), the log2 fold change was inactive: -0.041.

Turning to ATF6 (UniProt P18850), the log2 fold change is inactive: 0.055.

Turning to ATPSCKMT (UniProt Q6P4H8), the log2 fold change is active: -0.368.

For the target ATG2A (UniProt Q2TAZ0), the log2 fold change was inactive: -0.074.

Regarding ATP1B4 (UniProt Q9UN42), the log2 fold change was inactive: -0.051.

As for ATP1B1 (UniProt P05026), the log2 fold change was inactive: -0.041.

With ATXN7L3 isoform 2 (UniProt Q14CW9), the log2 fold change is inactive: 0.074.

As to ATP2C1 isoform 3 (UniProt P98194), the log2 fold change was inactive: 0.005.

With B3GNTL1 (UniProt Q67FW5), the log2 fold change is inactive: 0.007.

ASXL2 (UniProt Q76L83): the log2 fold change is inactive: -0.153.

For the target ATP5F1B (UniProt H0YI37), the log2 fold change was inactive: 0.398.

Take ATP5F1A (UniProt K7ENJ4): the log2 fold change is inactive: -0.051.

Regarding ATP5F1C isoform 2 (UniProt P36542), the log2 fold change is inactive: 0.108.

As to ATP11C, A0A067XG54, the log2 fold change is inactive: -0.055.
